The source of these data is publication PMC6900553 (Acta Pharmaceutica Sinica. B, 2019).

The term Papp A→B denotes how fast a substance crosses the layer from the apical side. Lower therefore signals slow passage. As usually defined, the Papp B→A is how fast a substance crosses the layer from the basolateral side. Usually efflux ratio stands for a quotient of directional permeabilities that is used to spot active efflux.

The nature of the data set: Caco-2 cell permeability assay. The following applies: human. (Caco-2 cells form a polarised layer with tight junctions and transporters.)

As to `CC(C)NCC(O)COc1ccc(CC(N)=O)cc1` (stereo not drawn) [Atenolol], the Papp A→B at 90 min, 10 μmol/L stood at 0.66 ± 0.01 ×10⁻⁶ cm/s; the Papp B→A at 90 min, 10 μmol/L is 1.53 ± 0.01 ×10⁻⁶ cm/s; the efflux ratio at 90 min, 10 μmol/L is 2.31.
